In US7674881B2, “Convergent synthesis of proteins by kinetically controlled ligation” (The University of Chicago, priority 2005, dated 2010):
Some entries repeat one wording, which the source may state once for all of them.

Assay: Model native chemical ligation reaction testing thiol catalysts
Conditions: for ligation rate at higher thiol concentrations: concentrations well beyond the saturation limit of thiophenol in water; for effect on the rate of NCL: 10 mM thiol catalyst, 6M GdmCl, 200 mM phosphate, 20 mM TCEP, pH 7.0, versus control

| Compound | ligation rate at higher thiol concentrations | effect on the rate of NCL |
| --- | --- | --- |
| O=C(O)Cc1ccc(S)cc1 [4-mercaptophenylacetic acid] | dramatically increased ligation rates |  |
| Oc1cccc(S)c1 [3-mercaptophenol] | dramatically increased ligation rates |  |
| Sc1ncccn1 [2-mercaptopyrimidine] |  | either slowed the reaction rate or were no faster than the control |
| O=[N+]([O-])c1ccc(S)cc1 [4-nitrothiophenol] |  | either slowed the reaction rate or were no faster than the control |
| Sc1ccccn1 [2-mercaptopyridine] |  | either slowed the reaction rate or were no faster than the control |
